# Reference: PubChem BioAssay AID528 (NMMLSC, 2006)
# The chains behind the UniProt entries cited, without tags or fusion partners.
# UniProt P13612, whole entry, looked up: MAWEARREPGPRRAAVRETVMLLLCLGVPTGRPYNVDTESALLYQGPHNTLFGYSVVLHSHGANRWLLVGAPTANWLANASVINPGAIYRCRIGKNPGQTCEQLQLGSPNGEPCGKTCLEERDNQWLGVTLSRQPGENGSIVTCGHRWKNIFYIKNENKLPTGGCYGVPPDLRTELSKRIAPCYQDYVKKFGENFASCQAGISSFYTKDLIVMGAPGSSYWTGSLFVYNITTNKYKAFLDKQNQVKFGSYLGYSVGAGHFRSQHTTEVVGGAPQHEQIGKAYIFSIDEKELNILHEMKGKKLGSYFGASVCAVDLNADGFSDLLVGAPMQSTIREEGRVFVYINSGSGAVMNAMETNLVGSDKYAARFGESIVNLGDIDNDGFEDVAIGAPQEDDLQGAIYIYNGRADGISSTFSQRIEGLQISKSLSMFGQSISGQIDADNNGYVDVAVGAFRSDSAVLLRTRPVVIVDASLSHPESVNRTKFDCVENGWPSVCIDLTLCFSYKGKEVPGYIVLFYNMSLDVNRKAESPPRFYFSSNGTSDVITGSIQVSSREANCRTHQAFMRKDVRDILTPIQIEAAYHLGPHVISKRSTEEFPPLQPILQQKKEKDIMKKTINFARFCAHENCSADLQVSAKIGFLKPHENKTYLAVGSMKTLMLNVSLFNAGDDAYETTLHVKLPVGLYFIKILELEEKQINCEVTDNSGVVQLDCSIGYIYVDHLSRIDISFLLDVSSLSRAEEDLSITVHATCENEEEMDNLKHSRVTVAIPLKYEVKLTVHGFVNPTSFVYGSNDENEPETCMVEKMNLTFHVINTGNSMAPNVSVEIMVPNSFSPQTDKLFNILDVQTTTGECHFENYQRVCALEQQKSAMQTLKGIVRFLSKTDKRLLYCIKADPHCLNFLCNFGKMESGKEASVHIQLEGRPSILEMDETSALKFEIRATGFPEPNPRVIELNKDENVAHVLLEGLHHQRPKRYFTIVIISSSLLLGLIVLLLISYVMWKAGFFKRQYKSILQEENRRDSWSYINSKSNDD
# Screen size: about 24,000 compounds; fewer than 10 were called active. The shares of active, inactive and inconclusive entries below differ from those in the screen.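 The calls were made as follows: active = fluorescent ligand binding to cells raised by more than 40% of the manganese-induced maximum; inconclusive = compound's own fluorescence above 85% of the ligand control signal; inactive = the rest.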
# Target: Integrin alpha-4 (Homo sapiens) (UniProt P13612)
# Assay: enhancers of LDV-FITC binding to VLA-4 integrin, primary screen, Jurkat cells, flow cytometry (AID 528);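 as to activation: 0% = ligand binding without compound and 100% = manganese-stimulated maximal binding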
# Details: stronger effect = higher value, screened at 10 µM (by protocol)
row,SMILES,activation
1,COc1cccc(-c2nc(CS(=O)(=O)CC(=O)NCCC(C)C)c(C)o2)c1,inactive: 0%
2,Cc1nc2sc(C(c3cccc(F)c3)N3CCCC(C)C3)c(O)n2n1 (stereo not drawn),inconclusive
3,Cc1cc2cc(CCNC(=O)c3ccc(Br)o3)c(=O)[nH]c2cc1C,inconclusive
4,CC1(C)NC(C)(C)C(O)(C(N)=O)C1=O (stereo not drawn),inconclusive
5,CN(C)c1ccc(C2C3C(=O)NC(=O)C3ON2c2ccc(Cl)cc2)cc1 (stereo not drawn),inactive: 0%
6,c1c2c(cc3sc(N4CCOCC4)nc13)OCCO2,inconclusive
7,CCOC(=O)CSc1nc2c(cnn2-c2ccc(C)cc2)c(=O)[nH]1,inconclusive
8,COc1ccc(C)c2sc(N3CCCC3)nc12,inconclusive
9,Cc1c(C)c2cc3c4c(oc3c(C)c2oc1=O)CCCC4,inconclusive
10,CN(C)c1ccc(C=Nc2ccc(N(C)C)cc2)cc1,inconclusive
11,CC1(C)CC(=O)C2=C(C1)N(c1ccccc1)C(N)=C(C#N)C2c1cccnc1 (stereo not drawn),inconclusive
12,CN(C)S(=O)(=O)c1ccc(C(=O)N2CCCC2c2nc3ccccc3s2)cc1 (stereo not drawn),inconclusive
13,O=C(CCNS(=O)(=O)c1cccc2nsnc12)NC1CCCc2ccccc21 (stereo not drawn),inconclusive
14,O=C(CN1CCN(C(=O)c2ccccc2F)CC1)Nc1ccc(Br)cc1,inconclusive
15,O=C(Cc1ccccc1)Nc1nonc1NC(=O)c1ccccc1,inconclusive
16,CCOC(=O)N1CCC(NC(=O)CCc2cn(C)c3ccccc23)CC1,inactive: 8%
17,Cc1ccc2[nH]c3c(N4CCCCCC4)ncnc3c2c1,inconclusive
18,CCCC(=O)Nc1nnc(CC(=O)N2CCCC2)s1,inactive: -0.3%
19,COc1ccc(N2CCN(C(=O)CNC(=O)Cn3c(C)cc4ccccc4c3=O)CC2)cc1,inactive: 3%
20,O=C(Cn1cc2c(n1)CCCC2)Nc1cc(-c2cccc(Cl)c2)no1,inactive: 3%
21,CN(C)c1ccc(-c2nc3n(n2)C(c2cccnc2)C2=C(CC(C)(C)CC2=O)N3)cc1 (stereo not drawn),inconclusive
22,COCCNC(=O)c1cc2c(=O)n(C)c3ccccc3c2n1C,inconclusive
23,Cc1cccc(-n2c(CNC(=O)COc3ccccc3)nnc2SCC(=O)Nc2nccs2)c1,inconclusive
24,O=C(CN1CCN(c2nc(-c3ccc(F)cc3)cs2)CC1)NCc1ccc2c(c1)OCO2,inconclusive
25,O=C(Nc1ccccc1)C1=C(O)CC(c2ccco2)CC1=Nc1ccccc1 (stereo not drawn),inactive: -7%
26,CCn1ncc(C2=NOC(C(=O)Nc3ccc4c(c3)OCO4)C2)c1C (stereo not drawn),inconclusive
27,CCOC(=O)c1ccc(N2C(=O)CC(Sc3nnc(C)s3)C2=O)cc1 (stereo not drawn),inconclusive
28,COc1ccc(Cc2nnc(NC(=O)c3c(-c4ccccc4)noc3C)s2)cc1OC,inconclusive
